PubChem BioAssay AID1508600 (Functional Genomics Laboratory (NCATS/FGL), 2020)
In all, about 53,000 sequences went through this assay and about 3,700 (7%) were called active.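 The calls were made as follows: active = gene knockdowns whose robust z-score for IL-1 alpha signal is at least 2 or at most -2, so actives lie on both sides; inactive = the rest.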 Some of the results follow.

test: Components of the Cytosolic LPS Sensing Pathway: Gene Identification via Genome-wide siRNA Screen; settings: RAW264.7 macrophages, IL-1a HTRF, actives lie on both sides, screened at 100 nM (by protocol), cells primed 5 h with Pam3CSK4 first;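 also: robust z of the log signal after scaling to non-targeting control siRNA wells of the plate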
In short: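 IL-1a HTRF of supernatants after 24 hour LipidA transfection of Pam3CSK4-primed (5 hours) RAW264.7 cells, 48h post-siRNA transfection (100 nM). Scores: percent of plate negative-control median, then log-based robust z-score.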

| Sequence | z-score |
| --- | --- |
| GGGUCCCAAACAAUAACUUTT against Aebp1 | inactive: 1.7 |
| GGACACAAAUUUCGUGAUGTT against Clec2m | inactive: 1.73 |
| GCAUCGUUACAGGACUUUATT against Enpp1 | inactive: 0.0846 |
| GGUGACACAGUACAAGAAGTT against Rpl36a | inactive: 0.318 |
| CCAUGGGCCUACCAAACAGTT against Celf2 | inactive: -1.86 |
| GGUGGUCCUGGCCUAUGAATT against Tpi1 | inactive: 1.89 |
| GGUCAUUCUAAUGACAAUCTT against Atg14 | inactive: -0.014 |
| CGACGUGGCACAGAAUAUCTT against Ssbp1 | inactive: 0.151 |
| GGACUUAUCUCAUCCAAGATT against Gm9946 | inactive: 0.39 |
| GCAAUAGCAGCAACUCUUATT against Dbpht1 | inactive: -0.369 |
| GGAGGGAGUAUAUUUUCUATT against Mgll | inactive: 0.54 |
| GCAUAUUCUUGCCUUUCUCTT against Vmn1r216 | inactive: -0.0933 |
| CCAAGCGAAUGUCAAAAUATT against Fam163a | inactive: 0.66 |
| CGUACAACACGGAAACCUATT against Paqr5 | inactive: -0.448 |
| GGCACCUAACAAAUUAGUCTT against Spopl | inactive: -0.95 |
| CGGACAGUUAUUAUGCAUATT against Sdcbp | inactive: 1.55 |
| GCCUAGCUGACAUUAAAGGTT against Susd3 | inactive: -1.3 |
| CCUGGAAGUUUUGAGACACTT against Mllt11 | inactive: 1.59 |
| GUUGUCCAUAUCAUGUUUGTT against Olfr569 | inactive: 1.28 |
| CCGACAUAUUUGUAGCUGGTT against Cyp2c55 | inactive: 1.72 |
| GGGCAUUGUCCGAAUGAAUTT against 4930433N12Rik | inactive: -0.898 |
| GGCUUGCUAAAGGAUGGGATT against Coq8b | inactive: 0.0536 |
| GGUACAUGUCACUGUGGCATT against Itgbl1 | inactive: -0.96 |
| GGAUGUGACGCACACAUGUTT against Cdip1 | inactive: 1.11 |
| CGCAUCACCCAGUACAUCUTT against Pacs2 | inactive: 1.31 |
| GGAUGUCACAUGACAGUUUTT against Tmprss4 | inactive: 0.563 |
| CGAGCUAUAUCCCAUGGAGTT against Penk | inactive: 0.0585 |

| Sequence | z-score |
| --- | --- |
| GGGAAAGACCAUGUUUGUATT against Ttbk2 | inactive: 0.493 |
| CCUUCGGCAACUUUCUAUUTT against Med30 | inactive: -1.31 |
| GGACACUGUGGAUAAUGACTT against 1810009J06Rik | inactive: -1.84 |
| GGAGACAAUCUGGAUAAGCTT against 2810032G03Rik | inactive: -0.682 |
| GGAGGUCUUCAGUUCUUACTT against Fntb | inactive: -1.08 |
| CGCUACGACUAGAGUUUGCTT against Rbpms | active: 2.36 |
| GGACUUAGACAUCCACCUCTT against Llcfc1 | inactive: -1.64 |
| GGAAUUCCCAUAAAUCAGUTT against Nadk | inactive: -1.17 |
| GGUCAAUUUGGUUUGUGAATT against Cenpa | inactive: -0.374 |
| GGGAGAAGGUAAAAGAAAATT against Ccdc73 | inactive: -0.488 |
| GGCCAUACGGACCAUGUAUTT against Slc25a19 | inactive: -1.25 |
| CGAUUCCAGAAGAUCAUGUTT against Ott | inactive: -1.28 |
| GGUAAACCUGUGUUUUGAUTT against Cyfip2 | inactive: -1.54 |
| GGCUGUAUGAAUCAAAGGATT against Nr5a2 | inactive: 1.37 |
| GGAAAUCGAAACUGUCUGCTT against Rabepk | inactive: -0.085 |
| GCCUACGAGGACAGUACAATT against Mst1r | inactive: 1.16 |
| CCGAAAUAAAGGAGUUGAUTT against Rab3gap2 | inactive: -0.249 |
| GGCAUAUGCAUGUUAUAUCTT against Fbxw21 | inactive: -1.34 |
| CCCAUCUUUCAUCAGCGACTT against Heg1 | inactive: -0.668 |
| GGCUGGUCUCCAAACCCAATT against F13b | inactive: 0.229 |
| GCCACGUAGACUGAUAUAGTT against Irf5 | inactive: -1.16 |
| GGAAAGACUUGAUGGUCUGTT against Nap1l1 | inactive: 0.416 |
| CCCAUCCAAUGCUUAUGUGTT against Scg5 | inactive: -0.421 |
| GGACUCCCUGAGAACCUGATT against Coil | inactive: -0.317 |
| GGCCAUCGAGGACUCUUCUTT against Dnaaf4 | inactive: -0.402 |
| CGGCAUCUGUAAGAACGUGTT against Adamts7 | inactive: -0.934 |
| CCACGAGUGAAUUAUAAUCTT against Zfp273 | inactive: -1.31 |

Rewritten with tabs: entries from further up.
Sequence	z-score
CCUUCGGCAACUUUCUAUUTT against Med30	inactive: -1.31
GGACACUGUGGAUAAUGACTT against 1810009J06Rik	inactive: -1.84
